From publication PMC7862700
Only a part is listed here, and it is no random draw. For part of these data: At the low end of the ranking the order means little.

The chains behind the UniProt entries cited, without tags or fusion partners. Where a name states a change or a piece, a line headed by the entry shows the natural chain unless it says otherwise.
UniProt P41161: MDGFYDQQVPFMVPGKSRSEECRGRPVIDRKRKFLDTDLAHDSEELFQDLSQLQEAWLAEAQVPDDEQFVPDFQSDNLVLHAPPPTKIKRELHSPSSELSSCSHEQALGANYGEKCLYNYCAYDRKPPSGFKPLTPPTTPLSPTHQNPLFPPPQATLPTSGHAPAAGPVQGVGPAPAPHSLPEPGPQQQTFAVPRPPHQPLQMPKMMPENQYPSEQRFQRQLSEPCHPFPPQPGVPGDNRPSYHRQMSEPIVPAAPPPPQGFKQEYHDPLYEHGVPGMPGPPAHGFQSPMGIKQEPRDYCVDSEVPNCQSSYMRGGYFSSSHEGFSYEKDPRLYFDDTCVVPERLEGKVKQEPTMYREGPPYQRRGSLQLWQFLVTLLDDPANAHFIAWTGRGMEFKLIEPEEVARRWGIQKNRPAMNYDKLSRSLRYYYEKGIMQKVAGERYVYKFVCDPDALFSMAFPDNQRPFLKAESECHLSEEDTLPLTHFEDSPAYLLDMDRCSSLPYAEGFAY

Molecular target: T1, FLI1 (UniProt Q01543)
T1 sequence: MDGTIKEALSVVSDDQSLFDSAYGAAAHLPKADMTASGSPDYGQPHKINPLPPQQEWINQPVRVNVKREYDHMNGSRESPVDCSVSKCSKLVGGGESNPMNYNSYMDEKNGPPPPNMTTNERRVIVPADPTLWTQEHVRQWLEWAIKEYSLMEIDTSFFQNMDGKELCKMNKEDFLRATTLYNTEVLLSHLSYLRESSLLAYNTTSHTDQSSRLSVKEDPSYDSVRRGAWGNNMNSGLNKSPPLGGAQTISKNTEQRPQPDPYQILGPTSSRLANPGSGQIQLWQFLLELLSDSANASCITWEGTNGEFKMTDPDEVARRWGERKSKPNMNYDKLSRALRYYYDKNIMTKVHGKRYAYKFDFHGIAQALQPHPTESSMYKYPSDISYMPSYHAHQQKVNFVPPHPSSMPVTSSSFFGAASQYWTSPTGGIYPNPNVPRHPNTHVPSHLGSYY
Assay: DAPPL (digital affinity profiling via proximity ligation, sequencing)
Settings: 10 mM Tris-HCl pH 7.5, 50 mM NaCl, 1 mM DTT, 4% glycerol, room temperature, 30 min; GST-TFs on glutathione beads, 16-mer random dsDNA library, 0.1% …; high values mean tight binding; double strand, one strand shown; scale: fold enrichment (6-mer frequency, TF over GST control)

| Sequence | binding signal |
| --- | --- |
| TATACC | 1.29 |
| TTCCGA | 1.64 |
| CGCCGC | 1.35 |
| CCGCAA | 1.27 |
| TGATAT | 1.13 |
| TATAGG | 1.14 |
| ATATCC | 2.59 |
| ATTCGC | 1.18 |
| ACGGCT | 1.02 |
| TACTGT | 1.15 |
| CCCCTT | 1.48 |
| CTGTTC | 1.47 |
| TTTTCG | 1.18 |
| TAGCAA | 1.15 |
| CTCTAC | 1.51 |
| CAATAG | 1.07 |
| GCCCTA | 1.29 |

Molecular target: ETV5 (UniProt P41161)
Assay: as above
Settings: 10 mM Tris-HCl pH 7.5, 50 mM NaCl, 1 mM DTT, 4% glycerol, room temperature, 30 min; GST-TFs on glutathione beads, 16-mer random dsDNA library, 0.1% …; high values mean tight binding; double strand, one strand shown; scale: fold enrichment (6-mer frequency, TF over GST control)

| Sequence | binding signal |
| --- | --- |
| TATACC | 1.09 |
| ACTCTG | 1.27 |
| TGATTA | 0.974 |
| ATAAAA | 1.12 |
| ACTCCA | 1.24 |
| TTCCGA | 1.57 |
| TGGGCT | 1.4 |
| GTCTCC | 1.46 |
| CGCCGC | 1.13 |
| CCGCAA | 1.3 |
| AAACTT | 1.22 |
| AGCTAT | 1.16 |
| TGCTAG | 1.3 |
| TGATAT | 1.1 |
| TATGAT | 1.24 |
| CTGGTA | 1.25 |
| TGCATG | 1.15 |
| TATAGG | 1.24 |
| ATATCC | 2.97 |
| ATTCGC | 1.13 |

| Sequence | binding signal |
| --- | --- |
| ACGGCT | 1.13 |
| CTCGGC | 1.41 |
| ATCTAT | 1.15 |
| TACTGT | 1.15 |
| TGTACC | 1.4 |
| ATTCGA | 1.28 |
| CCCCTT | 1.62 |
| CTGTTC | 1.39 |
| AATCTG | 1.4 |
| TTTTCG | 1.27 |
| TGATTC | 1.1 |
| CGAATT | 1.21 |
| TAGCAA | 1.33 |
| CTCTAC | 1.33 |
| CCCCCC | 1.09 |
| CAATAG | 1.11 |
| CGATGT | 1.1 |
| GCCCTA | 1.16 |
| ATAGTT | 1.25 |
| AAATAG | 1.2 |
